{"source": "PubChem BioAssay AID493014", "about": "(National Center for Advancing Translational Sciences (NCATS), 2011)", "note": "Hit rate of the full screen: of about 340,000 compounds, about 170 (0.05%) were called active. Inconclusive results, whose numbers are uncertain, are shown with a selection of clear calls. Calls come from the whole dose curve; as a rule, active = well fitted inhibition curve with a large enough effect in the signal ratio, with a control signal flat (not every such curve was filed as active); inconclusive = small, poorly fitted or top-dose-only effect, or effect the other way, or a change in a side signal; inactive = flat fitted curve, though single readings scatter; the % refers to the signal ratio. Potencies beside an inconclusive call are fits to weak or partial responses and may not hold up. Potency is the fitted concentration of half-maximal effect.", "data": [{"experiment": "qHTS Assay to Find Inhibitors of Chronic Active B-Cell Receptor Signaling;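 for activity change, negative = inhibition: plate controls were basal doxycycline-induced cells for no effect and cells given 10 µM MG132 for full effect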", "conditions": "ABC-DLBCL IkBa-CBG/CBR reporter, luminescence ratio (green luciferase fused to IkBa over red control in TMD8 lymphoma cells), 4 h; activity change, negative = inhibition: at 46.1 µM (top of the series)", "summary_of_the_method": "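TMD8 human ABC-DLBCL cells with doxycycline-inducible IκBα–green luciferase fusion and unfused red luciferase, in 0.5% FBS medium; compounds up to 46 uM, 4 h at 37C. Green/red luminescence ratio, filter-overlap corrected, fitted to concentration-response curves.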", "values": [{"smiles": "CC(C)Cn1c(SCC(=O)N2CCCCC2)nc2ccccc2c1=O", "Potency": "inconclusive: 7.31 µM [rising, partial curve]"}, {"smiles": "Cc1ccc(C)c(C(=O)COc2ccc(C)nc2[N+](=O)[O-])c1", "activity change, negative = inhibition": "inconclusive: 0.977%"}, {"smiles": "O=C(CC1C(=O)NCCN1Cc1c(F)cccc1Cl)NCCc1ccccn1", "note": "(stereo not given)", "activity change, negative = inhibition": "inconclusive: 20.3%"}, {"smiles": "CCOC(=O)c1nsnc1NCCSC(=N)N", "activity change, negative = inhibition": "inactive: -2.59%"}, {"smiles": "COc1ccc(CC2(CO)CCN(Cc3c(C)nn(C(C)C)c3C)CC2)cc1", "Potency": "inconclusive: 11.2 µM [falling, partial curve]"}, {"smiles": "CCOC(=O)c1cc(C(=O)OCC)c(=O)[nH]c1N1CCCC1", "activity change, negative = inhibition": "inconclusive: -1.25%"}, {"smiles": "COc1cc(SC)ccc1C(=O)N1CCN(c2ccccc2F)CC1", "activity change, negative = inhibition": "inconclusive: 1.05%"}, {"smiles": "COc1ccc(OCCCNCCc2ccccc2)cc1", "activity change, negative = inhibition": "inactive: -7.02%"}, {"smiles": "NC1=NC(c2ccccc2Cl)n2c(nc3ccccc32)N1", "note": "(stereo not given)", "activity change, negative = inhibition": "inconclusive: -15.6%"}, {"smiles": "Cc1ccc(NC(=O)C2CCN(S(=O)(=O)c3ccc(F)cc3)CC2)cc1", "activity change, negative = inhibition": "inactive: 15.2%"}, {"smiles": "Cc1ccc(N(CC(=O)NCc2ccccn2)S(=O)(=O)c2ccccc2)cc1C", "activity change, negative = inhibition": "inconclusive: 14.6%"}, {"smiles": "Cc1ccccc1NS(=O)(=O)c1nnc(NC(=O)c2ccc(Cl)cc2)s1", "Potency": "inconclusive: 35.5 µM [rising, partial curve, poor fit]"}, {"smiles": "CCN(CC)C(=O)Cn1cc(C(=O)C(=O)Nc2ccc3c(c2)OCCO3)c2ccccc21", "Potency": "inconclusive: 22.4 µM [falling, partial curve, poor fit]"}, {"smiles": "CC1OC(Oc2ccc3ccc(=O)oc3c2-c2c(O)ccc3cc(Oc4ccc5ccc(=O)oc5c4)c(=O)oc23)C(O)C(O)C1O", "note": "(stereo not given)", "activity change, negative = inhibition": "inconclusive: 4.81%"}, {"smiles": "COc1cccc(/C=C2\\SC(=S)N(CCCC(=O)Nc3cc(C)on3)C2=O)c1", "Potency": "inconclusive: 4.47 µM [falling, single point]"}, {"smiles": "O=C(/C=C/c1ccc([N+](=O)[O-])cc1)OCC(=O)N1CCCCCC1", "activity change, negative = inhibition": "inconclusive: 7.85%"}, {"smiles": "CCCCNC(=O)c1onc(CCl)c1C(=O)OC", "Potency": "inconclusive: 35.5 µM [cytotoxic, single point]"}, {"smiles": "CS(=O)(=O)N1Cc2ccccc2CC1C(=O)OCC(=O)NCCc1ccc(S(N)(=O)=O)cc1", "note": "(stereo not given)", "activity change, negative = inhibition": "inconclusive: 2.68%"}, {"smiles": "CC1(C)CC(=O)C2=C(C1)OC(N)=C(C#N)C2c1ccccc1[N+](=O)[O-]", "note": "(stereo not given)", "activity change, negative = inhibition": "inconclusive: -0.333%"}, {"smiles": "COc1ccc(OC)c(C(=O)NC(CC(N)=O)c2ccc(NC(C)C)c([N+](=O)[O-])c2)c1", "note": "(stereo not given)", "activity change, negative = inhibition": "inactive: -7.3%"}, {"smiles": "Cc1cccc(CNS(=O)(=O)c2csc(C(N)=O)c2)c1", "activity change, negative = inhibition": "inactive: -1.33%"}, {"smiles": "COc1cc(CNn2c(C)n[nH]c2=S)cc(Cl)c1OCc1ccccc1", "activity change, negative = inhibition": "inconclusive: 0.101%"}, {"smiles": "COc1cc2c(cc1NC(=O)c1ccccc1F)CCCC2", "activity change, negative = inhibition": "inactive: 5.3%"}, {"smiles": "O=S(=O)(NCc1ccccc1)c1ccc(Cl)cc1", "activity change, negative = inhibition": "inactive: -3.58%"}, {"smiles": "CCN=C1S/C(=C\\c2cn(C(C)=O)nc2-c2ccccc2)C(=O)N1CC", "activity change, negative = inhibition": "inactive: 18%"}, {"smiles": "Cc1ccc(C2=NN(C(=O)CCC(=O)O)C(c3cccs3)C2)cc1", "note": "(stereo not given)", "activity change, negative = inhibition": "inactive: 10.2%"}, {"smiles": "COC(=O)c1cc(COC(=O)c2ccc(OC)c(S(=O)(=O)N3CCCC3)c2)oc1C", "activity change, negative = inhibition": "inconclusive: -7.7%"}, {"smiles": "O=C(Oc1cccc(C(=S)N2CCOCC2)c1)c1ccc([N+](=O)[O-])cc1[N+](=O)[O-]", "activity change, negative = inhibition": "inactive: -4.96%"}, {"smiles": "O=C(CSc1nc2sc3c(c2c(=O)n1-c1ccccc1)CCCC3)N/N=C/c1ccc(C(=O)O)cc1", "activity change, negative = inhibition": "inconclusive: 2.4%"}, {"smiles": "COc1ccccc1OCCNC(=O)C(CCSC)NC(=O)COc1ccccc1", "note": "(stereo not given)", "activity change, negative = inhibition": "inconclusive: 8.21%"}, {"smiles": "COc1ccc(-c2[nH]ncc2CNC(C)c2cn(C)nc2C)c(F)c1", "note": "(stereo not given)", "activity change, negative = inhibition": "inconclusive: -22.6%"}, {"smiles": "COc1ccc(C(=O)C2CCCN(Cc3c[nH]c4ccccc34)C2)c(OC)c1", "note": "(stereo not given)", "activity change, negative = inhibition": "inactive: 1.64%"}, {"smiles": "Cc1nn(Cc2ccccc2)c(C)c1NC(=O)CSc1nc(C2CC2)nc2c1cnn2-c1ccccc1", "activity change, negative = inhibition": "inactive: -8.79%"}, {"smiles": "CC(NCc1ccc(-c2ccccc2)cc1)C(O)c1ccccc1", "note": "(stereo not given)", "Potency": "inconclusive: 20.6 µM [falling, partial curve, poor fit]"}, {"smiles": "COc1cccc(OC)c1-c1nnc(-c2cn(C)c3ccccc23)o1", "activity change, negative = inhibition": "inconclusive: 14.4%"}, {"smiles": "Cn1c(SCC(=O)Nc2ccc(F)cc2)nnc1-c1cccnc1", "Potency": "inconclusive: 5.17 µM [falling, partial curve, poor fit]"}, {"smiles": "COC(=O)c1cc(NC(=O)C2COc3ccccc3O2)ccc1Cl", "note": "(stereo not given)", "activity change, negative = inhibition": "inconclusive: 13.7%"}, {"smiles": "COC(=O)c1ccc(S(=O)(=O)N2CCC(C(N)=O)CC2)n1C", "activity change, negative = inhibition": "inconclusive: 7.51%"}, {"smiles": "CCCCn1c(N)c(-c2nc3ccccc3s2)c2c([N+](=O)[O-])nn(CC)c(=O)c21", "activity change, negative = inhibition": "inactive: 6.76%"}, {"smiles": "COC(=O)c1cc(NC(=O)C2COc3ccccc3O2)cc(C(=O)OC)c1", "note": "(stereo not given)", "Potency": "inconclusive: 18.4 µM [rising, single point]"}, {"smiles": "Cc1cc(=O)n2[nH]c(-c3ccc(F)cc3)nc2n1", "Potency": "inconclusive: 25.1 µM [falling, partial curve]"}, {"smiles": "O=C(Cc1ccccc1)N/N=C/c1cc(Br)c(Br)o1", "activity change, negative = inhibition": "inconclusive: 13.6%"}, {"smiles": "Clc1ccc2c(c1)c1cc(Cl)ccc1n2CN1CCOCC1", "Potency": "inconclusive: 13 µM [rising, partial curve, poor fit]"}, {"smiles": "O=C(COc1cccc2cccnc12)N/N=C1\\SCC(=O)N1Cc1ccccc1", "Potency": "inconclusive: 13 µM [falling, partial curve, poor fit]"}, {"smiles": "Clc1nc2ccccc2cc1-c1nnn(-c2ccccc2)n1", "Potency": "inconclusive: 25.1 µM [falling, single point]"}, {"smiles": "CCCCOc1ccc(NC(=O)CCSc2nccn2C)cc1", "activity change, negative = inhibition": "inactive: -0.28%"}, {"smiles": "Cn1[nH]c(-c2ccccc2)c(/C=N/O)c1=O", "activity change, negative = inhibition": "inconclusive: 1.24%"}, {"smiles": "CCOC(=O)CN1C(=O)C(Sc2n[nH]c(-c3cccc(C)c3)n2)CCc2ccccc21", "note": "(stereo not given)", "activity change, negative = inhibition": "inconclusive: 0.141%"}, {"smiles": "CC1CN(c2ccc([N+](=O)[O-])c(NCCOc3ccc(Cl)cc3)c2)CC(C)N1", "note": "(stereo not given)", "activity change, negative = inhibition": "inconclusive: -11.3%"}, {"smiles": "O=C(Nc1cccnc1)c1ccc(COc2cc(Cl)ccc2Cl)o1", "activity change, negative = inhibition": "inactive: -18.1%"}, {"smiles": "COc1cc(OC)nc(-n2ncc(Br)c(Br)c2=O)n1", "activity change, negative = inhibition": "inconclusive: 12.6%"}, {"smiles": "COc1ccccc1Nc1nc(-c2cccc([N+](=O)[O-])c2)cs1", "activity change, negative = inhibition": "inconclusive: -18.2%"}, {"smiles": "Nc1cc(N)nc(SCc2nnnn2-c2ccc(Cl)cc2)n1", "activity change, negative = inhibition": "inconclusive: 0.0775%"}, {"smiles": "COC(=O)CSc1nc2c(c(=O)n(C)c(=O)n2C)n1CCC(C)C", "activity change, negative = inhibition": "inconclusive: 1.1%"}, {"smiles": "Cc1cc(Nc2ccccc2C(=O)O)n(-c2cccc(Cl)c2)n1", "activity change, negative = inhibition": "inconclusive: 7.18%"}, {"smiles": "CC1=NNC(=O)C1Oc1ccccc1", "note": "(stereo not given)", "activity change, negative = inhibition": "inconclusive: 9.22%"}, {"smiles": "CC(C)(C)c1cc(C(=O)N2CCc3ccccc3C2)ccn1", "activity change, negative = inhibition": "inconclusive: 3.92%"}, {"smiles": "COc1cccc(C2CC(=O)Nc3cc(OC)c(OC)cc32)c1", "note": "(stereo not given)", "Potency": "inconclusive: 22.4 µM [falling, partial curve, poor fit]"}, {"smiles": "COc1ccc(CCNC(=O)CCC2COc3ccccc3O2)cc1OC", "note": "(stereo not given)", "Potency": "inconclusive: 0.891 µM [rising, full curve, poor fit]"}, {"smiles": "CCn1c(C)nc2cc(C(=O)NN=C(C)c3ccc(C#N)cc3)ccc21", "activity change, negative = inhibition": "inactive: 5.86%"}, {"smiles": "O=C/C(=C\\Nc1ccc(Cl)cn1)c1nc2ccccc2o1", "activity change, negative = inhibition": "inconclusive: 14.1%"}, {"smiles": "O=[N+]([O-])/C=C/c1cc2ccccc2[nH]1", "Potency": "inconclusive: 28.2 µM [falling, single point]"}, {"smiles": "Cc1ccc(NCc2nc3ccccc3n2C)cc1C", "activity change, negative = inhibition": "inactive: 6.18%"}, {"smiles": "O=c1c2c(-c3ccccc3)csc2ncn1/N=C/c1cccc([N+](=O)[O-])c1O", "activity change, negative = inhibition": "inactive: 13.4%"}, {"smiles": "c1ccc2c(Nc3nc4c(s3)CCCC4)cccc2c1", "Potency": "inconclusive: 22.4 µM [falling, partial curve]"}, {"smiles": "O=C(Nc1cc(N2CCOCC2)ncn1)Nc1cccc2ccccc12", "activity change, negative = inhibition": "inconclusive: 6.64%"}, {"smiles": "Cc1c(Br)c([N+](=O)[O-])nn1CC(=O)Nc1ccc(Cc2ccncc2)cc1", "Potency": "inconclusive: 18.4 µM [falling, partial curve, poor fit]"}, {"smiles": "COc1cc(C(=O)Nc2nc(N)n(-c3ccccc3)n2)cc(OC)c1OC", "activity change, negative = inhibition": "inconclusive: -6.62%"}, {"smiles": "COc1ccc(-c2c(C)nn3c(N4CCC5(CC4)OCCO5)cc(C)nc23)cc1OC", "Potency": "inconclusive: 20.6 µM [falling, single point]"}, {"smiles": "CC(=O)c1c(C)[nH]c(C(=O)OCCCCN2C(=O)c3ccccc3C2=O)c1C", "activity change, negative = inhibition": "inactive: 13.2%"}, {"smiles": "O=C(N/N=C/c1ccncc1)c1cccc(N/N=C/c2ccncc2)c1", "activity change, negative = inhibition": "inconclusive: -11.6%"}, {"smiles": "O=C(C1=C[C@H](C2CCCCC2)C[C@H](OCc2ccc(CO)cc2)O1)N1CCN(Cc2ccccc2)CC1", "activity change, negative = inhibition": "inconclusive: 1.52%"}, {"smiles": "O=C(NNC(=O)c1cc2cc(Br)ccc2oc1=O)c1ccc(O)cc1O", "Potency": "inconclusive: 11.2 µM [falling, partial curve]"}, {"smiles": "CSC(=NCc1ccco1)NC#N", "activity change, negative = inhibition": "inactive: -5.31%"}, {"smiles": "CC(C#N)OC(=O)c1cccnc1SCC(=O)Nc1ccc2c(c1)OCO2", "note": "(stereo not given)", "activity change, negative = inhibition": "inconclusive: 0.0799%"}, {"smiles": "CCCCn1c(SCC(=O)NCc2ccco2)nc2ccc(N3CCOCC3)cc2c1=O", "activity change, negative = inhibition": "inconclusive: 16.4%"}, {"smiles": "Cc1cc(C)c(C#N)c(SCc2ccccc2C)n1", "activity change, negative = inhibition": "inconclusive: 3.58%"}, {"smiles": "O=C(CC(CC(=O)c1ccc(Br)cc1)c1cccnc1)c1ccc(Br)cc1", "activity change, negative = inhibition": "inconclusive: 7.3%"}, {"smiles": "COc1ccccc1CNC(=O)c1c(-c2ccccc2)nn(-c2ccccc2)c1C", "Potency": "inconclusive: 16.4 µM [falling, partial curve]"}, {"smiles": "O=C(Cc1ccccc1)N1CCN=C1SCc1cccc([N+](=O)[O-])c1", "Potency": "inconclusive: 10 µM [falling, partial curve, poor fit]"}]}]}
